Measured data: PubChem BioAssay AID743448 (Peter MacCallum Cancer Centre, 2014)

Purpose: 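Test whether knock-downs sensitising to vorinostat hold across several colon lines but not etoposide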 (follow-up of hits)
Cells: four human colon cancer cell lines: HCT116-VR (vorinostat-resistant HCT116 derivative), SW480, SW620 and LIM1215
Reagent: siRNA pool against human genes, 40 nM siRNA pool
Time to read-out: drug added two days after transfection, read one day later
Treatment: vorinostat 2.5 µM on one half of each plate, etoposide 5 µM on the other half
Cell line and drug panel: SW480 cells with etoposide
Read-out: 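Caspase luminescence and viability fluorescence, each expressed relative to mock transfection and also as robust z-scores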
Direction: caspase ratio to mock: higher = more caspase activity than mock; viability ratio to mock: higher = more live cells than mock; caspase robust z-score: higher = more caspase activity, more apoptosis; viability robust z-score: higher = more live cells
Rule for the call: 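Hit means caspase ratio to mock at least 1.6, or viability ratio to mock at most 0.75; wells with strong death in the absence of drug get no call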
Calls: active = caspase or viability hit in this panel; inactive = no change, or unhealthy well
This is an unselected part of the 106 reagents, under one of the conditions tested. 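Calls are per line and drug panel including etoposide, not vorinostat-specific; gene picks needed hits in two or more extra lines with vorinostat versus etoposide.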

no.	gene symbol	caspase ratio to mock	viability ratio to mock	caspase robust z-score	viability robust z-score	activity call
1	POLR2J	1.31	0.98	-0.56	0.68	inactive
2	ANKRD13C-DT	3.01	0.64	0.75	-1.54	active
3	INTS6L	1.13	0.8	-0.72	-0.51	inactive
4	TOX4	1.33	0.88	-0.54	0.12	inactive
5	ZNF441	0.95	0.97	-0.84	0.6	inactive
6	OR6T1	4.2	0.94	1.68	0.4	active
7	RERE	2.86	1.1	0.63	1.55	active
8	PRRT3	2.73	0.86	0.5	-0.1	active
9	SIN3A	1.9	1.21	-0.14	2.25	active
10	RBBP8	2.96	1	0.72	0.91	active
11	LRP3	1.31	0.76	-0.57	-0.76	inactive
12	ANO9	1.62	1.09	-0.34	1.46	active
13	THOC5	2.12	0.88	0.07	0.05	active
14	HPCAL1	1.96	0.94	-0.06	0.49	active
15	CCDC59	3.11	0.83	0.8	-0.26	active
16	SLU7	2.35	0.7	0.2	-1.12	active
17	POLR2K	3.04	0.78	0.77	-0.62	active
18	GLI1	1	0.84	-0.8	-0.18	inactive
19	NUP54	1.41	0.78	-0.47	-0.56	inactive
20	PSMD4	2.2	1.08	0.09	1.37	active
21	IQSEC1	4.45	0.79	1.87	-0.52	inactive
22	CNOT1	4.41	0.69	1.85	-1.17	inactive
23	MTF2	1.77	0.78	-0.2	-0.55	active

Just “viability ratio to mock” (2 entries from above):
CNOT1 = 0.69
MTF2 = 0.78
